# Assay results reported in the supplement of paper PMC8728848.
# The list shows a part of the results.
# B1: RbmA (Vibrio cholerae), A0A2H4NFB8 (protein)
# chain: MSNFKGSIMNKRHYYLASCLALLFSTASYAEVDCELQPVIEANLSLNQNQLASNGGYISSQLGIRNESCETVKFKYWLSIKGPEGIYFPAKAVVGVDTAQQESDALTDGRMLNVTRGFWVPEYMADGKYTVSLQVVAENGEVFKANQEFVKGGDLNSLPELNGLTIDIKNQFGINSVESTGGFVPFTIDLNNGREGEAKVEFWMTAVGPDGLIIPVHSREKWMIIAGNTFSKVRGINFDKSYPAGEYTINAQVVDIVSGERVEQLMTVVKK
# How the values were obtained:
# Test in all cases: glycan array binding signal (z-score within array); higher = stronger binding
# Settings in all cases: glycan notation: IUPAC condensed, linker removed
# [1] = target: Gal3S4S(b1-4)GlcNAc
# In short: (§1)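 The binding signal is a Z-score computed within each array. Data were drawn from 3228 arrays in the Consortium for Functional Glycomics database, restricted to those with a known protein sequence. Scores were averaged over arrays of the same protein sequence at different concentrations or buffers, and over linkers, and negative values can be taken as non-binding.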
# [2] = target: Gal3S6S(b1-4)GlcNAc
# In short: as §1
# [3] = target: Gal3S6S(b1-4)GlcNAc6S
# In short: as §1
# [4] = target: Gal4S(b1-4)GlcNAc
# In short: as §1
# [5] = target: Gal4S6S(b1-4)GlcNAc
# In short: as §1
# [6] = target: Gal6P(b1-4)GlcNAc
# In short: as §1
# [7] = target: Gal6S(b1-3)GlcNAc
# In short: as §1
# [8] = target: Gal6S(b1-3)GlcNAc6S
# In short: as §1
# [9] = target: Gal6S(b1-4)Glc
# In short: as §1
# [10] = target: Gal6S(b1-4)Glc6S
# In short: as §1
# [11] = target: Gal6S(b1-4)GlcNAc
# In short: as §1
# [12] = target: Gal6S(b1-4)GlcNAc6S
# In short: as §1
# [13] = target: GalNAc(a1-3)Gal
# In short: as §1
# [14] = target: GalNAc(a1-3)GalNAc
# In short: as §1
# [15] = target: GalNAc(a1-3)GalNAc(a1-3)Gal(a1-4)Gal(b1-4)GlcNAc
# In short: as §1
# [16] = target: GalNAc(a1-3)GalNAc(b1-3)Gal(a1-4)Gal(b1-4)Glc
# In short: as §1
# [17] = target: GalNAc(b1-3)Gal
# In short: as §1
# [18] = target: GalNAc(b1-3)Gal(a1-4)Gal(b1-4)GlcNAc
# In short: as §1
# [19] = target: GalNAc(b1-3)Gal(a1-4)Gal(b1-4)GlcNAc(b1-3)Gal(b1-4)Glc
# In short: as §1
# [20] = target: GalNAc(b1-3)Gal(a1-6)Gal(b1-4)Glc
# In short: as §1
# [21] = target: GalNAc(b1-3)GalNAc
# In short: as §1
# [22] = target: GalNAc(b1-3)GlcNAc
# In short: as §1
# [23] = target: GalNAc(b1-4)Gal(b1-4)Glc
# In short: as §1
# [24] = target: GalNAc(b1-4)GlcNAc
# In short: as §1
# [25] = target: GalNAc(b1-4)GlcNAc(b1-2)Man
# In short: as §1
# [26] = target: GalNAc(b1-4)GlcNAc(b1-2)Man(a1-3)[GalNAc(b1-4)GlcNAc(b1-2)Man(a1-6)]Man(b1-4)GlcNAc(b1-4)GlcNAc
# In short: as §1
# [27] = target: GalNAc(b1-4)GlcNAc(b1-3)GalNAc(b1-4)GlcNAc
# In short: as §1
# [28] = target: GalNAc(b1-4)GlcNAc6S
# In short: as §1
# [29] = target: GalNAc(b1-6)GalNAc
# In short: as §1
# [30] = target: GalNAc3S(b1-4)GlcNAc
# In short: as §1
# [31] = target: GalNAc3S(b1-4)GlcNAc3S
# In short: as §1
# [32] = target: GalNAc3S(b1-4)[Fuc(a1-3)]GlcNAc
# In short: as §1
# [33] = target: GalNAc4S6S(b1-4)GlcNAc
# In short: as §1
# [34] = target: GalNAc6S(b1-4)GlcNAc
# In short: as §1
# [35] = target: Glc(a1-4)Glc
# In short: as §1
# [36] = target: Glc(a1-4)Glc(a1-4)Glc(a1-4)Glc
# In short: as §1
# [37] = target: Glc(a1-6)Glc(a1-6)Glc
# In short: as §1
# [38] = target: Glc(a1-6)Glc(a1-6)Glc(a1-6)Glc
# In short: as §1
binder,measurement,setting,value
B1,glycan array binding signal (z-score),[1],-0.008
same,glycan array binding signal (z-score),[2],0.559
same,glycan array binding signal (z-score),[3],0.952
same,glycan array binding signal (z-score),[4],3.32
same,glycan array binding signal (z-score),[5],-0.354
same,glycan array binding signal (z-score),[6],0.524
same,glycan array binding signal (z-score),[7],-1
same,glycan array binding signal (z-score),[8],-0.99
same,glycan array binding signal (z-score),[9],-0.634
same,glycan array binding signal (z-score),[10],-0.918
same,glycan array binding signal (z-score),[11],-0.43
same,glycan array binding signal (z-score),[12],-0.665
same,glycan array binding signal (z-score),[13],-0.479
same,glycan array binding signal (z-score),[14],-0.631
same,glycan array binding signal (z-score),[15],-0.962
same,glycan array binding signal (z-score),[16],-1.12
same,glycan array binding signal (z-score),[17],0.022
same,glycan array binding signal (z-score),[18],-0.439
same,glycan array binding signal (z-score),[19],-0.073
same,glycan array binding signal (z-score),[20],-0.263
same,glycan array binding signal (z-score),[21],-0.118
same,glycan array binding signal (z-score),[22],0.094
same,glycan array binding signal (z-score),[23],0.304
same,glycan array binding signal (z-score),[24],-0.148
same,glycan array binding signal (z-score),[25],-0.181
same,glycan array binding signal (z-score),[26],-0.923
same,glycan array binding signal (z-score),[27],2.09
same,glycan array binding signal (z-score),[28],-0.217
same,glycan array binding signal (z-score),[29],0.616
same,glycan array binding signal (z-score),[30],-0.902
same,glycan array binding signal (z-score),[31],-0.675
same,glycan array binding signal (z-score),[32],0.981
same,glycan array binding signal (z-score),[33],-0.474
same,glycan array binding signal (z-score),[34],-0.009
same,glycan array binding signal (z-score),[35],-0.733
same,glycan array binding signal (z-score),[36],0.33
same,glycan array binding signal (z-score),[37],-0.562
same,glycan array binding signal (z-score),[38],1.03

# Fetched one by one from above, two records:
binder,measurement,setting,value
B1,glycan array binding signal (z-score),[16],-1.12
same,glycan array binding signal (z-score),[8],-0.99
